No constants are given. Whether binding was seen depends on the method and setting. Some entries that bind do so weakly or less than the wild type.
Molecular target: recombinant full-length vimentin (UniProt P08670)
Test: negative stain electron microscopy

The chains behind the UniProt entries cited, without tags or fusion partners.
UniProt P08670: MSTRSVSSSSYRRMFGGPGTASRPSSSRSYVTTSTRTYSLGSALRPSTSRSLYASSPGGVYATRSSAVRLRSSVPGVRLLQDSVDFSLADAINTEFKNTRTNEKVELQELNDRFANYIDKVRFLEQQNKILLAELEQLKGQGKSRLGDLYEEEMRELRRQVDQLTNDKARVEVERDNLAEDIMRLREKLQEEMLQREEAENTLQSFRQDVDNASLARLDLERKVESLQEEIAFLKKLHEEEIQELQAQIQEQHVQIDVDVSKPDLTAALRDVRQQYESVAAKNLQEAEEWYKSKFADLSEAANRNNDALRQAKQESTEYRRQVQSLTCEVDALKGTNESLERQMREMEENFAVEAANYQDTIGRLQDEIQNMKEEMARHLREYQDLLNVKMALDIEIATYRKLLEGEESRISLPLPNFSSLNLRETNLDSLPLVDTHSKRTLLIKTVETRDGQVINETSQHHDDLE

binding: binds
Substance: recombinant full-length vimentin (from UniProt P08670 1-466)

Source: publication doi:10.1101/2025.02.27.640678
